Reference: PubChem BioAssay AID330 (DTP/NCI, 2004)
The list shows only some results of the screen, not a fair sample: it is rich in T/C values a quarter to a half above the control, in often repeated tests (any T/C) and in doses without a T/C. Further doses and runs are listed elsewhere. T/C is the treated group as % of the vehicle group. Some doses have a count of surviving animals in place of a T/C: the source files T/C as zero there, which appears to mark a toxic dose or a test without result, not a measured value. Some doses without a T/C left all or most animals alive at the check, yet need not have been tolerated: survival well below the control is almost never listed, so the zero probably covers shortened survival too. Survivors were counted at the toxicity check, usually on the fifth day, unless a day is given; later deaths do not show. Schedule codes are those of the source, taken here to give the interval after Q, in days (D) or hours (H), and the number of doses after X. Some entries hold several experiments; their values stand side by side, smallest first. Where survival is the endpoint, the PubChem record calls one and a half times the control and up active, and a quarter to a half above the control has no call in these data; cut-offs in other NCI protocols can differ.

Tested on: P388 leukemia ip, CD2F1 mice, survival T/C
Assay: NCI In Vivo Anticancer Drug Screen. Data for tumor model P388 Leukemia (intraperitoneal) in CD2F1 (CDF1) mice
Conditions: T/C endpoint: median survival time, higher T/C = longer survival
[1] = dose: 120.0 mg/kg/injection, schedule: Q01DX005 (ip), vehicle: Klucel (hydroxypropylcellulose) (HPC)
[2] = dose: 100.0 mg/kg/injection, schedule: Q01DX009 (ip), vehicle: saline with Tween-80
[3] = dose: 100.0 mg/kg/injection, schedule: Q01DX009 (ip), vehicle: saline
[4] = dose: 200.0 mg/kg/injection, schedule: Q01DX009 (ip), vehicle: saline
[5] = dose: 50.0 mg/kg/injection, schedule: Q01DX009 (ip), vehicle: saline with Tween-80

Cc1[nH]c2ccc(N(C)C)cc2c(=O)c1CN(Cc1ccccc1)Cc1c(C)[nH]c2ccc(N(C)C)cc2c1=O
survivor count (dose: 60.0 mg/kg/injection, schedule: Q01DX005 (ip), vehicle: Klucel (hydroxypropylcellulose) (HPC)): 6 of 6
survivor count [1]: 6 of 6
survivor count (dose: 240.0 mg/kg/injection, schedule: Q01DX005 (ip), vehicle: Klucel (hydroxypropylcellulose) (HPC)): 6 of 6

CN(C)S(=O)(=O)CCNC(=O)N(CCCl)N=O
T/C (dose: 5.0 mg/kg/injection, schedule: Q01DX005 (ip), vehicle: saline): 143 % of control

Cc1c(C#N)c2n(c1C)CC(=O)N2
survivor count (dose: 240.0 mg/kg/injection, schedule: Q01DX005 (ip), vehicle: saline with Tween-80): 0 of 6

CNCCCC12CC(c3ccccc31)c1ccccc12
survivor count [2]: 6 of 6
survivor count (dose: 200.0 mg/kg/injection, schedule: Q01DX009 (ip), vehicle: saline with Tween-80): 3 of 6

C/C=C/Cc1n[nH]c(=O)c2c(C)[nH]nc12
survivor count (dose: 200.0 mg/kg/injection, schedule: Q04DX002 (ip), vehicle: Klucel (hydroxypropylcellulose) (HPC)): 6 of 6
survivor count (dose: 400.0 mg/kg/injection, schedule: Q04DX002 (ip), vehicle: Klucel (hydroxypropylcellulose) (HPC)): 0 of 6

O=C(CCl)NC(Cc1cccc(F)c1)C(=O)O (centres undefined)
survivor count (dose: 12.5 mg/kg/injection, schedule: Q01DX009 (ip), vehicle: saline): 0 of 6
survivor count (dose: 25.0 mg/kg/injection, schedule: Q01DX009 (ip), vehicle: saline): 0 of 6
survivor count (dose: 50.0 mg/kg/injection, schedule: Q01DX009 (ip), vehicle: saline): 0 of 6
survivor count [3]: 0 of 6
survivor count [4]: 0 of 6

COC(=O)C1(CC(=O)/C=C/c2ccccc2)NC(=S)NC(=O)C1C#N (centres undefined)
survivor count [1]: 4 of 6 and 6 of 6

CNC(=O)OCc1c(COC(=O)NC)c(C)n(-c2ccc(OC)cc2)c1C
T/C (dose: 12.5 mg/kg/injection, schedule: Q01DX009 (ip), vehicle: Klucel (hydroxypropylcellulose) (HPC)): 136 % of control
T/C (dose: 25.0 mg/kg/injection, schedule: Q01DX009 (ip), vehicle: Klucel (hydroxypropylcellulose) (HPC)): 142 % of control

COC1(OC)C2CCC1C(Cl)=C2Cl
survivor count (dose: 12.5 mg/kg/injection, schedule: Q01DX009 (ip), vehicle: saline with Tween-80): 4 of 6
survivor count (dose: 25.0 mg/kg/injection, schedule: Q01DX009 (ip), vehicle: saline with Tween-80): 0 of 6 and 1 of 6
survivor count [5]: 1 of 6
survivor count [2]: 0 of 6

COc1ccccc1-n1cc[n+](C)c1/C=N/O
survivor count [5]: 2 of 6
survivor count [3]: 0 of 6
survivor count [4]: 0 of 6

Nc1nc(N)c(N=O)c(Nc2ccc(Br)cc2)n1
survivor count (dose: 200.0 mg/kg/injection, schedule: Q04DX003 (ip), vehicle: saline with Tween-80): 4 of 6

COc1ccc(OC)c(CCc2cc(OC)ccc2OC)c1
survivor count (dose: 1.56 mg/kg/injection, schedule: Q01DX009 (ip), vehicle: DMSO): 6 of 6
survivor count (dose: 3.12 mg/kg/injection, schedule: Q01DX009 (ip), vehicle: DMSO): 6 of 6
survivor count (dose: 12.5 mg/kg/injection, schedule: Q01DX009 (ip), vehicle: DMSO): 6 of 6
survivor count (dose: 100.0 mg/kg/injection, schedule: Q01DX009 (ip), vehicle: DMSO): 6 of 6

CCOc1cc2c(cc1Cc1c(OC)cc(OC)cc1OC)OCO2
survivor count (dose: 120.0 mg/kg/injection, schedule: Q01DX005 (ip), vehicle: saline with Tween-80): 6 of 6

C=CC1CC[N-]CC1.[Cl][Cu][Cl]
survivor count (dose: 30.0 mg/kg/injection, schedule: Q01DX005 (ip), vehicle: saline): 0 of 6
survivor count (dose: 60.0 mg/kg/injection, schedule: Q01DX005 (ip), vehicle: saline): 0 of 6
survivor count (dose: 120.0 mg/kg/injection, schedule: Q01DX005 (ip), vehicle: saline): 0 of 6
survivor count (dose: 240.0 mg/kg/injection, schedule: Q01DX005 (ip), vehicle: saline): 0 of 6
